PubChem BioAssay AID504834 (National Center for Advancing Translational Sciences (NCATS), 2011)
About 22,000 (6.9%) of roughly 320,000 compounds were called active. Inconclusive results, whose numbers are uncertain, are shown with a selection of clear calls. Calls follow the shape of the dose curve; as a rule, active = well fitted inhibition curve with a large enough effect; inconclusive = small, poorly fitted or top-dose-only effect, or another doubt; inactive = no such curve, though single readings can be large or run the other way. Potencies of inconclusive entries are doubtful fits and often do not repeat.
% is scaled to controls: 0 for no effect and ±100 for the full control effect; potency is read from the fitted curve at half-maximal effect.

Experiment: Primary qHTS for delayed death inhibitors of the malarial parasite plastid, 96 hour incubation
Conditions: P. falciparum luciferase reporter growth; series mostly up to 28.7 µM; activity change, negative = inhibition: at the top concentration
Summary of the method: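 Two-generation exposure (96 h) targets delayed-death phenotype. Reporter parasites carrying integrated firefly luciferase, in red cells at 2% hematocrit and 0.05% parasitemia final, kept at 37 C, 5% CO2; luminescence loss indicates inhibition.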
For `COc1ccc(S(=O)(=O)Nc2cccc(NC(C)=O)c2)cc1`, the “activity change, negative = inhibition” value was inactive: 22.5%. With `O=C(Nc1ccc(F)cc1F)C1CCN(c2ncnc3c2sc2cccc(F)c23)CC1` the “activity change, negative = inhibition” value was inactive: 18%. In the case of `CCOc1ccccc1CNS(=O)(=O)c1cc(-c2cc(C)no2)ccc1C`, the Potency is reported as inconclusive: 5.22 µM [inhibitor, partial curve]. For `COC(=O)c1c(NC(=O)c2ccc([N+](=O)[O-])o2)sc2c1CCN(C(C)C)C2`, the Potency was inconclusive: 11.7 µM [inhibitor, single point]. In the case of `Cc1cccc(N2Cc3ccccc3C2=NC(=O)c2ccc(Cl)nc2)c1`, the Potency is reported as inconclusive: 0.0738 µM [inhibitor, full curve]. In the case of `Cn1c(=O)c2c(ncn2CC(=O)Nc2cccc(S(=O)(=O)Nc3ccccc3F)c2)n(C)c1=O`, the Potency is reported as inconclusive: 2.33 µM [inhibitor, partial curve, poor fit]. In the case of `CC(=O)NC1=C(NC2CCS(=O)(=O)C2)C(=O)c2ccccc2C1=O` (configuration not stated), the Potency is reported as inconclusive: 4.15 µM [inhibitor, single point]. In the case of `COc1ccc(NC(=S)Nc2ccccc2)c(OC)c1`, the “activity change, negative = inhibition” value is reported as inactive: 49.3%. For `CC1CC1C(=O)OCC(=O)Nc1cccc(F)c1` (configuration not stated), the “activity change, negative = inhibition” value was inactive: -4.3%. With `NC(=O)CSc1nnc(COc2ccccc2)n1C1CCCCC1` the “activity change, negative = inhibition” value was inactive: -8.14%. In the case of `Cc1cc(C)c(S(=O)(=O)n2c([N+](=O)[O-])cnc2C)cc1C`, the Potency is reported as inconclusive: 2.62 µM [inhibitor, full curve]. For `O=C(Nc1cccc(NC(=O)C2CC2)n1)C1CC1`, the Potency was inconclusive: 11.7 µM [inhibitor, single point]. With `COc1cccc(-c2nnn(CC(=O)N3CCCCC3)n2)c1` the Potency was inconclusive: 10.4 µM [inhibitor, single point]. With `COc1ccccc1C(=O)NCCC(=O)NC1CCCC(C)C1C` (configuration not stated) the Potency was inconclusive: 18.5 µM [inhibitor, single point]. With `O=C(CNC(=O)c1ccccc1)c1ccccc1` the “activity change, negative = inhibition” value was inactive: 202%. With `CCc1nc(NCCCN2CCOCC2)c2oc3ccccc3c2n1` the Potency was active: 5.86 µM. With `Cc1csc(NC(=O)CSc2ccc(-c3ccc(F)cc3)nn2)n1` the activity change, negative = inhibition was inactive: -36.6% [at 1.15 µM]. With `CN(C)CCN(C)Cc1ccccc1Sc1cccc2ccccc12` the Potency was active: 13.1 µM. In the case of `C=CCn1c(SCC(=O)c2ccc(Br)cc2)nnc1C(C)NC(=O)Cc1ccc(OC)cc1` (configuration not stated), the “activity change, negative = inhibition” value is reported as inactive: -12.8%. With `COc1ccc(-c2c(-c3cc(OC)cc(OC)c3)n(C)c3ccc(-c4ccn[nH]4)cc23)cc1` the Potency was inconclusive: 2.62 µM [inhibitor, partial curve, poor fit]. With `Cc1nnsc1S(=O)c1ccc(F)cc1` (configuration not stated) the Potency was inconclusive: 11.7 µM [inhibitor, single point]. With `COc1ccc(/C=C/C(=O)c2c(C)cc(C)[nH]c2=O)c2ccccc12` the Potency was inconclusive: 13.1 µM [inhibitor, single point]. With `Cc1ccc2cc(CCNC(=O)CCCc3ccccc3)c(=O)[nH]c2c1C` the Potency was inconclusive: 18.5 µM [inhibitor, single point]. For `O=C(Cn1cc([N+](=O)[O-])cn1)Nc1ccccn1`, the Potency was inconclusive: 1.31 µM [inhibitor, single point]. For `CC1Nc2ncnc(N3CCN(c4ccccn4)CC3)c2N(Cc2ccccc2)C1=O` (configuration not stated), the Potency was active: 2.62 µM. For `CCOC(=O)C1CCCN(CC(=O)Nc2c(C(=O)OC)[nH]c3ccc(C)cc23)C1` (configuration not stated), the Potency was inconclusive: 18.5 µM [inhibitor, single point]. For `Cc1ccc(C(=O)NC(N(C)C)C(Cl)(Cl)Cl)cc1` (configuration not stated), the “activity change, negative = inhibition” value was inactive: 57.5%. In the case of `Cc1ccc([N+](=O)[O-])cc1NC(=O)Nc1onc(C)c1C`, the “activity change, negative = inhibition” value is reported as inactive: 22.2%. In the case of `COc1ccc(NC(=O)CN2CCN(CC(=O)Nc3ccccc3Cl)CC2)cc1`, the Potency is reported as inconclusive: 4.65 µM [inhibitor, partial curve, poor fit]. With `CN(C)c1cc[n+](CCC(=O)Nc2cccc([N+](=O)[O-])c2N)cc1` the Potency was active: 3.29 µM. In the case of `O=C(CSc1ccc(-c2ccccn2)nn1)N1CCc2ccccc21`, the “activity change, negative = inhibition” value is reported as inactive: 22.5%. In the case of `COc1cc(-c2cc(C(=O)Nc3ccc(S(=O)(=O)NCc4ccco4)cc3)c3ccccc3n2)cc(OC)c1OC`, the Potency is reported as active: 16.5 µM. With `CN1CCN(C(=O)C2=C[C@H](c3ccc(Br)cc3)C[C@H](OCCCCO)O2)CC1` the “activity change, negative = inhibition” value was inactive: 7.29%. With `CCCCn1c(N)c(N(CCOC)C(=O)c2ccc(S(=O)(=O)N3CCCCC3)cc2)c(=O)[nH]c1=O` the “activity change, negative = inhibition” value was inactive: -9.31%. In the case of `N#Cc1ccc(OCC(=O)NCC2COc3ccccc3O2)cc1` (configuration not stated), the “activity change, negative = inhibition” value is reported as inactive: -2.8%. For `Cc1nc(NC(=O)c2cc3c(C)nn(-c4ccccc4)c3s2)sc1C(=O)Nc1ccccc1`, the Potency was inconclusive: 10.4 µM [inhibitor, single point]. With `O=C(NCc1ccco1)c1cc(-c2cccnc2)nc2ccccc12` the “activity change, negative = inhibition” value was inactive: 0%. With `O=[N+]([O-])c1ccc(N/N=C/c2sc(N3CCOCC3)nc2-c2ccccc2)c(S(=O)(=O)Nc2ccccc2Cl)c1` the Potency was inconclusive: 1.04 µM [inhibitor, partial curve, poor fit]. For `CN1CCN(c2nc(-c3cccs3)nc3ccccc23)CC1`, the Potency was inconclusive: 18.5 µM [inhibitor, single point]. With `CC(C)(C)Nc1nc(OCC(F)(F)F)nc(OCC(F)(F)F)n1` the Potency was inconclusive: 4.15 µM [inhibitor, partial curve, poor fit]. With `O=C1c2ccccc2C(Nc2ccccc2)N1Cc1ccc2c(c1)OCO2` (configuration not stated) the Potency was inconclusive: 11.7 µM [inhibitor, single point]. In the case of `CC(C)CCn1c(=O)c2ccccc2n2c(CN(C)Cc3ccccc3)nnc12`, the Potency is reported as active: 13.1 µM. For `CCc1ccc2oc(C(=O)N3CCN(c4ccc(OC)cc4)CC3)cc(=O)c2c1`, the “activity change, negative = inhibition” value was inactive: -13.9%. In the case of `CN(C)S(=O)(=O)c1ccc2c(c1)C(=O)c1cc(S(=O)(=O)N(C)C)ccc1CC2`, the Potency is reported as inconclusive: 16.5 µM [inhibitor, single point]. With `COCCNC(=O)CCC1CCN(Cc2cccc(Oc3ccccc3)c2)CC1` the Potency was inconclusive: 10.4 µM [inhibitor, single point]. For `CCOc1ccc(C2CC(c3ccc(F)cc3)Nc3nc(N)nn32)cc1` (configuration not stated), the “activity change, negative = inhibition” value was inactive: 38.5%. For `Cc1ccc(Cc2nnc3n(-c4ccccc4)nc(C(=O)c4ccccc4)n3c2=O)cc1`, the Potency was active: 13.1 µM.
